33 targets from the supplement of paper PMC10849652 can be followed below.

Protein sequences, listed by entry. Tags and fused reporters are not part of them. Lines headed by an entry give the natural chain unless they say otherwise; changes in a name come on top.
UniProt P07737, whole entry, looked up: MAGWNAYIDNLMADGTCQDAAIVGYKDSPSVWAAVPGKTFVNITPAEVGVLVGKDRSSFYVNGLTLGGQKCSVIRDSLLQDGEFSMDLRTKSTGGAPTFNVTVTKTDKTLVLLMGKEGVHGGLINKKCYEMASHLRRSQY
UniProt Q460N5, whole entry, looked up: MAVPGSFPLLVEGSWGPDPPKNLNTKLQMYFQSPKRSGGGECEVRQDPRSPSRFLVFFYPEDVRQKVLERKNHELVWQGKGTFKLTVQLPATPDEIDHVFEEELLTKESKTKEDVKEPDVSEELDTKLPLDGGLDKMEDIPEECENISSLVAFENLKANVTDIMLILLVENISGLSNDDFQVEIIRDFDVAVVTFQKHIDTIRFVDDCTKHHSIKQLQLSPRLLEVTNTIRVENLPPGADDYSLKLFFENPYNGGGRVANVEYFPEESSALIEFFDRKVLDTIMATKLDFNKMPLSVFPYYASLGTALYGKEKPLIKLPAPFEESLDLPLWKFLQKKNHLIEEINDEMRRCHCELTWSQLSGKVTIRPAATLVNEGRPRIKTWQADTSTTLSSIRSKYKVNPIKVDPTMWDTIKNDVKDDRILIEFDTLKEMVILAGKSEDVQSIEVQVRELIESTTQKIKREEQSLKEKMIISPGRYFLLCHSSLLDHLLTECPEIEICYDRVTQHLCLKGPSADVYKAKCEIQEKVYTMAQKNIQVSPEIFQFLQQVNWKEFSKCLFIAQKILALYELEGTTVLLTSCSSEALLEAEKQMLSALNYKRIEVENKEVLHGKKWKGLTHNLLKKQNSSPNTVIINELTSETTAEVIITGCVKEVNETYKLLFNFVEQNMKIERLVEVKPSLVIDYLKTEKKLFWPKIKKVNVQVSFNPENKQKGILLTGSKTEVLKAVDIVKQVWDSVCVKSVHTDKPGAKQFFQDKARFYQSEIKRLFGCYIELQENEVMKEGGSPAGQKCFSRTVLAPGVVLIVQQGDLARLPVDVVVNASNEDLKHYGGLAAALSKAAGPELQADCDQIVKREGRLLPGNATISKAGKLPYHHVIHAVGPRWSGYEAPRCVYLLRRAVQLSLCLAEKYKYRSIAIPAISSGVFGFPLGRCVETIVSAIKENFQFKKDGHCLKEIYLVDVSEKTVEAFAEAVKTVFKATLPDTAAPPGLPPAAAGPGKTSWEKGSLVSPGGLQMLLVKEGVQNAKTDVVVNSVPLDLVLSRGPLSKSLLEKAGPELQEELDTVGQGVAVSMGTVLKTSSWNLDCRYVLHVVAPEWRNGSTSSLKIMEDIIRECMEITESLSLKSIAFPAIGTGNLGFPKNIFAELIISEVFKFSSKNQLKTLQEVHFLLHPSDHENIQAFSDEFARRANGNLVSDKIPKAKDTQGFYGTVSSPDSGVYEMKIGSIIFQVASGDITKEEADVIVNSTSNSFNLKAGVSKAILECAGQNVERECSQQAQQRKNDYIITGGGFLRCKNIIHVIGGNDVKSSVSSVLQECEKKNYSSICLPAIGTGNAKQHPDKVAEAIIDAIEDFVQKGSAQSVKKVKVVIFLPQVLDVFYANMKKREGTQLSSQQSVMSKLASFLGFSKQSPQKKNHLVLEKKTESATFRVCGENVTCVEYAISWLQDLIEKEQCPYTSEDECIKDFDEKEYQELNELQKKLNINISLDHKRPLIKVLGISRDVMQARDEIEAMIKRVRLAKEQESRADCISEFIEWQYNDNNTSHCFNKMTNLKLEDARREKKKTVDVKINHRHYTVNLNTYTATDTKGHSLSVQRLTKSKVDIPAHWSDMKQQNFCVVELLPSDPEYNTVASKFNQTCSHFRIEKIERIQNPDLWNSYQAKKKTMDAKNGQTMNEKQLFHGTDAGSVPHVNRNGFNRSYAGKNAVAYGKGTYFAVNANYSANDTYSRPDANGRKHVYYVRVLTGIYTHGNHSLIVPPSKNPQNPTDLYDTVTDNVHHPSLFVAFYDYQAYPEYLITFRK
UniProt P61457: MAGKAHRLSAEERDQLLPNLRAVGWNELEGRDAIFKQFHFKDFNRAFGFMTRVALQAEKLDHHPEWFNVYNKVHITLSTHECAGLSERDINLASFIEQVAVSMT
UniProt Q15366, whole entry, looked up: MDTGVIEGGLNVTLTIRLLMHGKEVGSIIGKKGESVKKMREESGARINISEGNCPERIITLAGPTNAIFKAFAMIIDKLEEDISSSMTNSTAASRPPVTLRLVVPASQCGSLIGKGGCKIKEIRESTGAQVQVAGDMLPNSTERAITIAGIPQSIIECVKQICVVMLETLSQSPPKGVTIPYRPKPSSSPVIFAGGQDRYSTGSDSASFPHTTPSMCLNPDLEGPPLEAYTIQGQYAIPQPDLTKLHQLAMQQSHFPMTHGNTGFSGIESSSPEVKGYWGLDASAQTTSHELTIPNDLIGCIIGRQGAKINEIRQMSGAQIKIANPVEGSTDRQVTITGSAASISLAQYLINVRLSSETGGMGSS
UniProt Q53EL6: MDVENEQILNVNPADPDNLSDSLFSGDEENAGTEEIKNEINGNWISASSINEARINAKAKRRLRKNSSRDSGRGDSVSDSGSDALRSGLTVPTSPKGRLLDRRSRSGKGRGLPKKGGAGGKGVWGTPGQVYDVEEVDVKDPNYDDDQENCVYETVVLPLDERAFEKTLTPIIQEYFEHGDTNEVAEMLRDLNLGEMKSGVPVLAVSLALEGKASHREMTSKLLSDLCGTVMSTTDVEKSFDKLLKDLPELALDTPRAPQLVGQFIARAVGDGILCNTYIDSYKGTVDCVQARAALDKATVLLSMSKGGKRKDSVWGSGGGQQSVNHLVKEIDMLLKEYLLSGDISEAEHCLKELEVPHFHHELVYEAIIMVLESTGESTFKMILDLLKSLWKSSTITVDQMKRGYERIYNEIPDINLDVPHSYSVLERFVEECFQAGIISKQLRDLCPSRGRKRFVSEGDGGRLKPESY
UniProt Q9BRX2, whole entry, looked up: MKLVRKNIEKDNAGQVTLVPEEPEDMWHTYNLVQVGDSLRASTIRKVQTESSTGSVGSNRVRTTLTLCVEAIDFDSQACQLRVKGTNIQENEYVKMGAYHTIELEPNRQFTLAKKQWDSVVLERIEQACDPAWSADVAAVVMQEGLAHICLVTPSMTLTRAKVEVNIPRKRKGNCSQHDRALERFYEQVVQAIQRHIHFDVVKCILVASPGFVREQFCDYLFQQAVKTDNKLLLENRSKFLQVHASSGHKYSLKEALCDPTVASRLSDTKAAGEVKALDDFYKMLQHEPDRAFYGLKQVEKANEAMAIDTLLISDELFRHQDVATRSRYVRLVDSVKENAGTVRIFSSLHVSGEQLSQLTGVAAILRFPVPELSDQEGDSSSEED
UniProt Q15121, whole entry, looked up: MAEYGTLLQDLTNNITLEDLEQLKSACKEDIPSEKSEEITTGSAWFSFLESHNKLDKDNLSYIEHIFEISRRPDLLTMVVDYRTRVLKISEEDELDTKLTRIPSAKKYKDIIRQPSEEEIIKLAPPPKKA
UniProt Q9H2J4: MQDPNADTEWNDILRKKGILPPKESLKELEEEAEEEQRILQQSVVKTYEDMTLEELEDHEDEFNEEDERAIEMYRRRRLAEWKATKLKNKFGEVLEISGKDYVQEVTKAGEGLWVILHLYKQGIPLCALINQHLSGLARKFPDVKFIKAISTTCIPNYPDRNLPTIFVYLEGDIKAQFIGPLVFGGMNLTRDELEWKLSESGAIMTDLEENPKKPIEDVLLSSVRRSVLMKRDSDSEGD
UniProt Q9UKL6: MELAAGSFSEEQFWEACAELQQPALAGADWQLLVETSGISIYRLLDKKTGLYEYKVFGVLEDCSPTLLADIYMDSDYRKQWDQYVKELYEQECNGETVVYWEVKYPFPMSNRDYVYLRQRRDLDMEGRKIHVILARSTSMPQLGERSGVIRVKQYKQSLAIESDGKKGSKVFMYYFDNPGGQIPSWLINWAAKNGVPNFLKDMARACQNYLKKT
UniProt P57721, whole entry, looked up: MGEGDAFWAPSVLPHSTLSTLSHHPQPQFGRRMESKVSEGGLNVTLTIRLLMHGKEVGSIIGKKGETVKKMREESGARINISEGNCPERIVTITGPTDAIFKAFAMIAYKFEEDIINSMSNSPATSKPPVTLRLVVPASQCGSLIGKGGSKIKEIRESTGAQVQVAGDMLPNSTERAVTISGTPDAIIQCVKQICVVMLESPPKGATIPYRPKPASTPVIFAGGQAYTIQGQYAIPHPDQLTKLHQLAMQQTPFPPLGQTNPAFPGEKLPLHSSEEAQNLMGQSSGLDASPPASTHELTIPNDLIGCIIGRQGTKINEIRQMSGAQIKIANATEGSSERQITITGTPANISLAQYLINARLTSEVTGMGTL
UniProt Q8WUM4: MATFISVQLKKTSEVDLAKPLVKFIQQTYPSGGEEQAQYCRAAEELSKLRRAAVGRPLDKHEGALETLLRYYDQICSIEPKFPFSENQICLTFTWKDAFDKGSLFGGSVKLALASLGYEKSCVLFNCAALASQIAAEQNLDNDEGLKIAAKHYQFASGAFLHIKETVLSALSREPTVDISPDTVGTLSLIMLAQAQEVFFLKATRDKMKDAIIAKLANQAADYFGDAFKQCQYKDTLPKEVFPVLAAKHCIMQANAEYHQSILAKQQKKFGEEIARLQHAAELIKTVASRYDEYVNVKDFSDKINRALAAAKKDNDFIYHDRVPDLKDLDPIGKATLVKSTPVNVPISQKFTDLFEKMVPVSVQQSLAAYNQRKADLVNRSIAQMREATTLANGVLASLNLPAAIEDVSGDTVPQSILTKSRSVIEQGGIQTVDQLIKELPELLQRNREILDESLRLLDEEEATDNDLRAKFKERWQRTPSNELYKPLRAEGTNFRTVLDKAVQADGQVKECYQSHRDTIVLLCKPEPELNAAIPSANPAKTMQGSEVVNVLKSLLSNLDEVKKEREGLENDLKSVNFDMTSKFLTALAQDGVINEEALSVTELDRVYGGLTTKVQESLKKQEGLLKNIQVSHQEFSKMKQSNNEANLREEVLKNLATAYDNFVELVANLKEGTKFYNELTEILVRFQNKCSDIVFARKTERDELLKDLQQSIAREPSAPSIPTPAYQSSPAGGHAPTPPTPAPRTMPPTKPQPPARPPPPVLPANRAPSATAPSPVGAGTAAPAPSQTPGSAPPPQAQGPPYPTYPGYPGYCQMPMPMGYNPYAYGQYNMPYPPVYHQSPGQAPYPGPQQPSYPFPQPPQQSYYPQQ
UniProt Q9NQP4, whole entry, looked up: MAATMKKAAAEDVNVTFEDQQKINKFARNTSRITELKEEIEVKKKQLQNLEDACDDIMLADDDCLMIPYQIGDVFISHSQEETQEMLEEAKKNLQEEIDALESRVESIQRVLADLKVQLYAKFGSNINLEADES
UniProt Q6L8Q7: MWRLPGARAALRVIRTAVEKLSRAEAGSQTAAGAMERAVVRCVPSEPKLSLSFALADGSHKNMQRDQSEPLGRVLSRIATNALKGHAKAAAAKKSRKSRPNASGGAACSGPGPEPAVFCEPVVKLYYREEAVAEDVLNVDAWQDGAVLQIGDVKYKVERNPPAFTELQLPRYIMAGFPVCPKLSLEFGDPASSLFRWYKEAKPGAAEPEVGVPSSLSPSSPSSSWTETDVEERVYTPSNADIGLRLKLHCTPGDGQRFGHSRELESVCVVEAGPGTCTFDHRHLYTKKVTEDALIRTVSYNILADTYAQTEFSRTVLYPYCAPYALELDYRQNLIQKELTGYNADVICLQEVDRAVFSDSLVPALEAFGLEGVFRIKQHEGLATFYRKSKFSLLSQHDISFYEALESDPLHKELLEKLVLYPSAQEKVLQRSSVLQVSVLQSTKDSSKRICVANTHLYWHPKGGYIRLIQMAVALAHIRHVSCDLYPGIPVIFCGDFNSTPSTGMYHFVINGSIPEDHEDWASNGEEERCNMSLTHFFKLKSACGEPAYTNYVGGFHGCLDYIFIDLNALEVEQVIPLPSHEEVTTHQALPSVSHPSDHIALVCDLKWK
UniProt Q99447: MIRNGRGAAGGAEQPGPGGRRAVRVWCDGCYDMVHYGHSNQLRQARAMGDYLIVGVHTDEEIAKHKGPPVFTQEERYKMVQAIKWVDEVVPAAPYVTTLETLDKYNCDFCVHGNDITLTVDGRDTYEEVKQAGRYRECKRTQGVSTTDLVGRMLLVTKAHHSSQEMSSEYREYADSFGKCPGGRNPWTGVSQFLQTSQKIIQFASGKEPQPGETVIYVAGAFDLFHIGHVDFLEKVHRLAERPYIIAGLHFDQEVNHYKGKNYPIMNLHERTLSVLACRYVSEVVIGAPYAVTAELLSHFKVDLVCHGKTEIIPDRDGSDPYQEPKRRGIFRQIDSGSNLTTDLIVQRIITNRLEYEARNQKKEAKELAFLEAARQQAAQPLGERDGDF
UniProt Q9BUL8: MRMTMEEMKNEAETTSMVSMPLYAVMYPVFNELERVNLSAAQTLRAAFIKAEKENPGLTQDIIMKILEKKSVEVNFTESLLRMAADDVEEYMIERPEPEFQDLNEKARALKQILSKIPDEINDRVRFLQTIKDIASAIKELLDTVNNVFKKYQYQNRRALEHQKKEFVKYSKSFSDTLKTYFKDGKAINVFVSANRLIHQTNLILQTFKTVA
UniProt Q9NUG6, whole entry, looked up: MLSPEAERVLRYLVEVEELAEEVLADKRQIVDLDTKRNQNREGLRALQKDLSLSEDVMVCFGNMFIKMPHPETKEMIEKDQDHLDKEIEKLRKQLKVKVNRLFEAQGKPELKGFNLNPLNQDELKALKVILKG

This is one part of the list.

Compound in one test: CN1CC[C@H](c2c(O)cc(O)c3c(=O)cc(-c4ccccc4Cl)oc23)[C@H](O)C1 [alvocidib]
As to the kind of experiment: log2 fold change, soluble protein after heating vs DMSO (PISA); higher = thermal stabilisation; K562 lysate, 10 uM; active = over 0.2 and 3.5 SD of the protein, either way, in both replicates (recomputed). The procedure, abridged:
(§1)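 Pellets of K562 cells were dounce-homogenised in PBS pH 7.4 with 1 mM MgCl2, and the crude extract was held at 1 mg/mL protein for a 30 min treatment with 10 μM compound. Aliquots were heated for 3 min over 48°C-58°C and pooled before NP-40 was added to 0.5% at 4°C. The supernatant from 21,000xg for 90 min was quantified by TMTpro 16plex LC-MS/MS with channel sums equalised. Values are reported from duplicates as log-two fold change in thermal stability relative to solvent controls.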
Regarding PFN1 (UniProt P07737), the log2 fold change is inactive: -0.002. As to PDCD5 (UniProt O14737), the log2 fold change was inactive: -0.056.

As for PAXBP1 (UniProt Q9Y5B6), the log2 fold change was inactive: -0.043. The same measure, in the same setting: to PARP14 (UniProt Q460N5) belongs inactive: 0.009.

With PCBD1 (UniProt P61457), the log2 fold change is inactive: -0.029. Same read-out and setting: to PFDN5 (UniProt Q99471) belongs inactive: 0.03; to PCBP2 isoform 3 (UniProt Q15366), inactive: 0.038; to PDCD4 (UniProt Q53EL6), inactive: 0.01.

Turning to PELO (UniProt Q9BRX2), the log2 fold change was inactive: 0.149. For PEA15 isoform 2 (UniProt Q15121), the log2 fold change is inactive: 0.045.

Compound in the next test: CN1CCc2c(c3ccccc3n2Cc2ccc(C(=O)NO)cc2)C1 [Tubastatin A]
The test is described as above. The procedure, abridged: as §1
On to PDCL3 (UniProt Q9H2J4), for which the log2 fold change was inactive: 0.066. On the same count and under the same terms, to PATL1 (UniProt Q86TB9) belongs inactive: 0.021. Take PDIA3 (UniProt H7BZJ3): the log2 fold change was inactive: 0.148. Turning to PARN (UniProt O95453), the log2 fold change was inactive: 0.009. On the same count and under the same terms, with PEX5 isoform 4 (UniProt P50542) the figure was inactive: -0.012. For the target PFKM isoform 3 (UniProt P08237), the log2 fold change was inactive: 0.007. Still for that read-out and setting: to PCTP (UniProt Q9UKL6) belongs inactive: 0.008; to PCBP3 (UniProt P57721), inactive: 0.005; to PDCD6IP (UniProt Q8WUM4), inactive: 0.

As to PDCL (UniProt Q13371), the log2 fold change is inactive: -0.017. The same measure, in the same setting: to PFDN4 (UniProt Q9NQP4) belongs inactive: 0.199; to PCBP2 (UniProt H3BRU6), inactive: -0.116. On to PDCD6IP isoform 2 (UniProt Q8WUM4), for which the log2 fold change was inactive: -0.088.

In the case of PDIA4 (UniProt P13667), the log2 fold change was inactive: 0.05. On the same count and under the same terms, with PDE12 (UniProt Q6L8Q7) the figure was inactive: 0.012.

Take PCYT2 isoform 3 (UniProt Q99447): the log2 fold change was inactive: -0.018. Still for that read-out and setting: to PDE2A (UniProt O00408) belongs inactive: 0.275; to PCBP2 isoform 8 (UniProt Q15366), inactive: -0.133. Same read-out and setting: to PFDN6 (UniProt O15212) belongs inactive: 0.052; to PFDN2 (UniProt Q9UHV9), inactive: 0.01; to PDCD10 (UniProt Q9BUL8), inactive: -0.002.

Regarding PAXIP1 (UniProt Q6ZW49), the log2 fold change was inactive: -0.062. Still for that read-out and setting: to PDRG1 (UniProt Q9NUG6) belongs inactive: 0.038; to PFN1 (UniProt P07737), inactive: -0.01; to PDCD5 (UniProt O14737), inactive: 0.061.

Turning to PAXBP1 (UniProt Q9Y5B6), the log2 fold change was inactive: -0.069. On the same count and under the same terms, with PARP14 (UniProt Q460N5) the figure was inactive: -0.238; with PCBD1 (UniProt P61457), inactive: 0.08. The same measure, in the same setting: with PFDN5 (UniProt Q99471) the figure was inactive: 0.109. On to PCBP2 isoform 3 (UniProt Q15366), for which the log2 fold change is inactive: -0.074. For the target PDCD4 (UniProt Q53EL6), the log2 fold change is inactive: -0.033.

For the target PELO (UniProt Q9BRX2), the log2 fold change was inactive: -0.086.

Regarding PEA15 isoform 2 (UniProt Q15121), the log2 fold change is inactive: 0.098.
